Experimental data from article PMC2363905.
These are yes or no findings as the source states them, for the method shown. Binding seen in cells or lysates may run through a third protein. Some binding calls cover weakened binding; strength is not graded here.

By UniProt entry, the sequences of proteins in these tests, tags left out.
UniProt P10415: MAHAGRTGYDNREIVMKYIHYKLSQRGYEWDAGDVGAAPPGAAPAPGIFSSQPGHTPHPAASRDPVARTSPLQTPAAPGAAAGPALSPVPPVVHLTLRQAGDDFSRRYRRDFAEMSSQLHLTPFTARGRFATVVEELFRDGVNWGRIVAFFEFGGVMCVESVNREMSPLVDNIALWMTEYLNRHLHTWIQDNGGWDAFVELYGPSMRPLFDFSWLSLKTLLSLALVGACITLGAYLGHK

Target: Bcl-2 (human (endogenous in PC-3)) (UniProt P10415)
Assay: co-IP; competition in cells: synthetic BH3 peptide (50 g ml-1 as printed) electroporated into PC-3 cells; read out as the loss of Bcl-2 from the anti-Bak immunoprecipitate; only the binder purified

binding | Binder
binds | LSESLKRIGDELDSN (N-terminal acetyl (Ac); C-terminal amide (NH2)) [Peptide derived from the BH3 domain of Bax (C62->S)]
binds | VGRQLAIIGDDINRR (N-terminal acetyl (Ac); C-terminal amide (NH2)) [Peptide derived from the BH3 domain of Bak]
